Binding data for one molecule are collected here from article PMC5772059.

Amino acid sequences for entries named in this document (tags omitted). A change or cut given only in a name is not applied to a line headed by its entry.
UniProt Q13642: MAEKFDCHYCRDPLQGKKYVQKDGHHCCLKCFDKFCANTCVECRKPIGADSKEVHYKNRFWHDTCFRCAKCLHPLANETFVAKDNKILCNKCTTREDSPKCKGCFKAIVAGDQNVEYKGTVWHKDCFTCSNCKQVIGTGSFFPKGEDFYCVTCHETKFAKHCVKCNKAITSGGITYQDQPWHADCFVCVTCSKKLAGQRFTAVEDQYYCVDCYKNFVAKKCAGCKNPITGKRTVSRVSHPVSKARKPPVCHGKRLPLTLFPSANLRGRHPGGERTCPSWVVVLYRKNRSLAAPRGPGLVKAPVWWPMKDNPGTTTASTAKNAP

No constants are given. Whether binding was seen depends on the method and setting. Binding can be weak; no strength is given.

In the assay the target is FHL-1 protein (Abnova) (UniProt Q13642). The assay is described as follows: pull-down; GST pull-down: purified protein incubated with a GST-fusion protein immobilised on glutathione sepharose beads, 4 °C, 1.5 h; washes in high and low salt buffer; SDS-PAGE and western blot; both purified. (In western blotting, separated proteins are transferred to a membrane and probed.)

B1: recombinant human full-length PP5 (enzyme, UniProt P53041 1-499)
chain: MAMAEGERTECAEPPRDEPPADGALKRAEELKTQANDYFKAKDYENAIKFYSQAIELNPSNAIYYGNRSLAYLRTECYGYALGDATRAIELDKKYIKGYYRRAASNMALGKFRAALRDYETVVKVKPHDKDAKMKYQECNKIVKQKAFERAIAGDEHKRSVVDSLDIESMTIEDEYSGPKLEDGKVTISFMKELMQWYKDQKKLHRKCAYQILVQVKEVLSKLSTLVETTLKETEKITVCGDTHGQFYDLLNIFELNGLPSETNPYIFNGDFVDRGSFSVEVILTLFGFKLLYPDHFHLLRGNHETDNMNQIYGFEGEVKAKYTAQMYELFSEVFEWLPLAQCINGKVLIMHGGLFSEDGVTLDDIRKIERNRQPPDSGPMCDLLWSDPQPQNGRSISKRGVSCQFGPDVTKAFLEENNLDYIIRSHEVKAEGYEVAHGGRCVTVFSAPNYCDQMGNKASYIHLQGSDLRPQFHQFTAVPHPNVKPMAYANTLLQLGMM
Regarding B1, the binding result was “binds”.
